Results are given in words; binding and its absence hold for the method and conditions named. Binding seen in cells or lysates may run through a third protein. Here binding means that the protein was enriched with, or labelled near, the bait; the list need not be complete.
biological target: Fc-glucagon (human) (UniProt P01275); test: affinity purification with mass spectrometry; Fc-glucagon expressed in α-TC1-6 cells, captured on Protein A-Sepharose from non-ionic lysate of enriched secretory granules, overnight at 4°C; 7 M urea elution; LC-MS/MS; proteins found with Fc alone subtracted; cells in 25 or 5.5 mM glucose, with or without GABA (25 μM), insulin (100 pM) or both for 24 h

Sequences of proteins named here, by UniProt entry; tags and fusion partners are left off. Residues count along the entry.
UniProt P01275, residues 53-81: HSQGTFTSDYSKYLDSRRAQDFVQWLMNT
UniProt P15532: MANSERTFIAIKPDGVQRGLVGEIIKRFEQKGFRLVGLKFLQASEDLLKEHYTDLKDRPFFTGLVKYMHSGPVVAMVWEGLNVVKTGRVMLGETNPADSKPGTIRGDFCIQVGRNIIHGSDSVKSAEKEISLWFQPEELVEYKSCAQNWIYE
UniProt P09103, residues 20-509: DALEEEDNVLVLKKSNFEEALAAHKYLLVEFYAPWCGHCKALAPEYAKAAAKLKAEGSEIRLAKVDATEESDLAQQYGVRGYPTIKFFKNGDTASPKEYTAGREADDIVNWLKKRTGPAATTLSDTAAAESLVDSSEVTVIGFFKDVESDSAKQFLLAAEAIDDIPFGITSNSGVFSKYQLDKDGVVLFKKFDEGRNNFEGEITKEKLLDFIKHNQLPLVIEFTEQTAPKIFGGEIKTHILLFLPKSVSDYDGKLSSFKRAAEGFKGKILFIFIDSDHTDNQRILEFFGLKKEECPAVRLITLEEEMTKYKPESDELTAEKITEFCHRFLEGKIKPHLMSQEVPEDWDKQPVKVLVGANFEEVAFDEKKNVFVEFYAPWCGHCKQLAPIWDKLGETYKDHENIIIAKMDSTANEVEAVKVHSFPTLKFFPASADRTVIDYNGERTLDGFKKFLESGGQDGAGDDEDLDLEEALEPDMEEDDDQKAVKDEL
UniProt P63101: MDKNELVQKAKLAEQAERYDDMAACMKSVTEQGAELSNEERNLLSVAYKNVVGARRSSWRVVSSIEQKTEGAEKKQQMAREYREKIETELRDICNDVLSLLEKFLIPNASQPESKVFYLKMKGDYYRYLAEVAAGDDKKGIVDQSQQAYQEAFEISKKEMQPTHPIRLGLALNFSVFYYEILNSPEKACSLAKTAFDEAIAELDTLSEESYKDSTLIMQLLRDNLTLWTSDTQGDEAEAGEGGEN
UniProt P48036: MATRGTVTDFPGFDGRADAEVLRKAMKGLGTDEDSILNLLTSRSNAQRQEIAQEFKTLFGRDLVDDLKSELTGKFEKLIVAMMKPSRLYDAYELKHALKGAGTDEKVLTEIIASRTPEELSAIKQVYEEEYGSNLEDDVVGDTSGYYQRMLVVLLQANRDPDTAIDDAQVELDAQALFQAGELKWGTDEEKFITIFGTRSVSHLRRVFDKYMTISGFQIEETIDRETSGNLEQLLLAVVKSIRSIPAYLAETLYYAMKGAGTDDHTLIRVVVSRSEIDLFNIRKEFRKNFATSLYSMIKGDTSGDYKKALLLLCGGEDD
UniProt P53994: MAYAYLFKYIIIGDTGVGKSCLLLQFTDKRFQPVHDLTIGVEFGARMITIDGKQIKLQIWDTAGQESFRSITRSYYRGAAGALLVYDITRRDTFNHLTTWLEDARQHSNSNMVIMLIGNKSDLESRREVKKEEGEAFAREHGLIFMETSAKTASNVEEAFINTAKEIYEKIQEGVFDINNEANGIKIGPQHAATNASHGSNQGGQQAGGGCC
UniProt P19096: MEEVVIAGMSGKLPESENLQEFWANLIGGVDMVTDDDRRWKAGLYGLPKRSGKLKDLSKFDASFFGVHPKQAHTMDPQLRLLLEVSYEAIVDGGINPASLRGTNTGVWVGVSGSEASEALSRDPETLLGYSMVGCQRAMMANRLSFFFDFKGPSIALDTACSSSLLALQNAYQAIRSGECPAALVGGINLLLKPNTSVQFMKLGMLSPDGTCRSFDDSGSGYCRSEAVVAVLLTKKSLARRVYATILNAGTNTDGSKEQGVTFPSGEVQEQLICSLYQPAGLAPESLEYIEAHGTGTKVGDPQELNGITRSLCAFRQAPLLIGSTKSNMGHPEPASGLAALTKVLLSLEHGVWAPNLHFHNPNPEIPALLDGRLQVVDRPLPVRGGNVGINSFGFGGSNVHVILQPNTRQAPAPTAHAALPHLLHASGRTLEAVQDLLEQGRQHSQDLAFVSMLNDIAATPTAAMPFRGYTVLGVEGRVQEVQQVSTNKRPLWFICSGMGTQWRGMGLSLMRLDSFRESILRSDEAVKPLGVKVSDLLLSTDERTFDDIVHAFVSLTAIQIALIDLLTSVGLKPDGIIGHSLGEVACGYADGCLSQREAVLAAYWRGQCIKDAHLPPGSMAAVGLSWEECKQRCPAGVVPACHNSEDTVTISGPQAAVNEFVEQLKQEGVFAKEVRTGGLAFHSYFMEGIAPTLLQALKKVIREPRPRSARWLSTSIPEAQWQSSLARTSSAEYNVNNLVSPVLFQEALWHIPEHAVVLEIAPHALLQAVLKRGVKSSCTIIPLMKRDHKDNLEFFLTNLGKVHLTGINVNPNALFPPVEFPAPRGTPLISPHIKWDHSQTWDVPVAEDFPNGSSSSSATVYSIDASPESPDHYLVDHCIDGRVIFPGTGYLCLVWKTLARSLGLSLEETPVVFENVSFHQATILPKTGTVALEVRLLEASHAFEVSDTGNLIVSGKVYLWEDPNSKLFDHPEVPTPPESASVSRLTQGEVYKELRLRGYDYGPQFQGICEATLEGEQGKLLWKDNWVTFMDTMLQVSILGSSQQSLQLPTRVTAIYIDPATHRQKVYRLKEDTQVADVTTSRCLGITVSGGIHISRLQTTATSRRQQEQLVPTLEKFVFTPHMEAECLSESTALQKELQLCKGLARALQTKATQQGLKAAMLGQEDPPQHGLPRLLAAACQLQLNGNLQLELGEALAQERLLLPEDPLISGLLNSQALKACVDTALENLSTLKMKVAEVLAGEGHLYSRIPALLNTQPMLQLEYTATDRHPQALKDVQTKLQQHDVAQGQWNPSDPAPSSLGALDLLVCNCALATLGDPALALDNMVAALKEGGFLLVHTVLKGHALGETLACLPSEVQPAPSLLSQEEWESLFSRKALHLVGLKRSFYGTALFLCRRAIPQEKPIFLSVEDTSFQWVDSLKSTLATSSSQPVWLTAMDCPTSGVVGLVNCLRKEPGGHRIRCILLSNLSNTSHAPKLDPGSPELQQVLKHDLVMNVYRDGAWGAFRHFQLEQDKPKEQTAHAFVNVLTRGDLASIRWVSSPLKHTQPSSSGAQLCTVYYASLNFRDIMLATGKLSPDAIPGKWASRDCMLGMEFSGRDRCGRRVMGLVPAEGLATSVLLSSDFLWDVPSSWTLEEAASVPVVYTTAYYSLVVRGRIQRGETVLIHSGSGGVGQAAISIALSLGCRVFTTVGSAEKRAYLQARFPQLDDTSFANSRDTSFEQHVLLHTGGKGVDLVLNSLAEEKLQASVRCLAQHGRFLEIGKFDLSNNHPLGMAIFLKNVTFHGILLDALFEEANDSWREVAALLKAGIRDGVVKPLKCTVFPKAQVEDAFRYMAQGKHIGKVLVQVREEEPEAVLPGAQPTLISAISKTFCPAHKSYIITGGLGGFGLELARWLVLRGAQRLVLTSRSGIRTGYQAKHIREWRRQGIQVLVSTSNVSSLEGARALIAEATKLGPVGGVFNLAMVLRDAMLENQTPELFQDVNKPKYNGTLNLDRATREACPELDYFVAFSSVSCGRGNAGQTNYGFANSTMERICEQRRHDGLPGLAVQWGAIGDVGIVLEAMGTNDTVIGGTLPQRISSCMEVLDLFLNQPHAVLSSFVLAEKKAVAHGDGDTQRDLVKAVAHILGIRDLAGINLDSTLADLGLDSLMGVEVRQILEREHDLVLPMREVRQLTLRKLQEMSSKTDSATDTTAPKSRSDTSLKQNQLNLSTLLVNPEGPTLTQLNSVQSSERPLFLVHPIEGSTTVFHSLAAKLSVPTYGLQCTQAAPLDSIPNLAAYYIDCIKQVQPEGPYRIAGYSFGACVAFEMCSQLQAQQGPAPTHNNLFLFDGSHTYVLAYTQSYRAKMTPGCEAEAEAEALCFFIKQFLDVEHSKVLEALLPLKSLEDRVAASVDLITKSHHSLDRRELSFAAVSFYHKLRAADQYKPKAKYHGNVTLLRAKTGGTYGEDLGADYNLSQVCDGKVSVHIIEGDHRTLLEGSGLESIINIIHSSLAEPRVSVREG
UniProt Q9QUI0: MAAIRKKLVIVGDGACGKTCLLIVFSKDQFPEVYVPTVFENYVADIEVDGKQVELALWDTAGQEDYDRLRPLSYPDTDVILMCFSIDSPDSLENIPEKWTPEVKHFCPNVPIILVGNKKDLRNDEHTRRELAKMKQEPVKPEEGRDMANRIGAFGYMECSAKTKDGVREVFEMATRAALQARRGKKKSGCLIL
UniProt Q01768: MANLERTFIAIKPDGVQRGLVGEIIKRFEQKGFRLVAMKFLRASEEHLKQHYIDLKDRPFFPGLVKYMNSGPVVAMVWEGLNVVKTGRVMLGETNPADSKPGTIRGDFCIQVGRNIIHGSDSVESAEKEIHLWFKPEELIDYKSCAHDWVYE
UniProt Q61016: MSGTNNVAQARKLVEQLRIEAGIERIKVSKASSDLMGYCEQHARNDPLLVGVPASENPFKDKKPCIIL
UniProt P17879: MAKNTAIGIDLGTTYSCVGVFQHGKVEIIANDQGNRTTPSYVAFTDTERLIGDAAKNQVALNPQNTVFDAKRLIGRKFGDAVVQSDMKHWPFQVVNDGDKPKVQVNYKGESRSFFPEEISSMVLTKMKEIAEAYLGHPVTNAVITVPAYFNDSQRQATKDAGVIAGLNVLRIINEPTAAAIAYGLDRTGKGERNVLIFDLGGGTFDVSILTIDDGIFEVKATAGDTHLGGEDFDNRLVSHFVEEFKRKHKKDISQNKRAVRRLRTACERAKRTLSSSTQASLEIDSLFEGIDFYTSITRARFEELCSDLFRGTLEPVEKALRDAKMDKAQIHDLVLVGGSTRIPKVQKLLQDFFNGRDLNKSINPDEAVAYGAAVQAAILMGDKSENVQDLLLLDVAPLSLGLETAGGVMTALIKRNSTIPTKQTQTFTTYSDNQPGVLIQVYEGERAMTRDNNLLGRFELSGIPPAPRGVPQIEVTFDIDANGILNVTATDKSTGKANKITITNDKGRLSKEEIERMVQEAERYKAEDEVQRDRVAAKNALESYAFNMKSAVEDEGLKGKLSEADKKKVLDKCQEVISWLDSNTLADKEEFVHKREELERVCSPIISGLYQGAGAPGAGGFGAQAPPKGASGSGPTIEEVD
UniProt P05213: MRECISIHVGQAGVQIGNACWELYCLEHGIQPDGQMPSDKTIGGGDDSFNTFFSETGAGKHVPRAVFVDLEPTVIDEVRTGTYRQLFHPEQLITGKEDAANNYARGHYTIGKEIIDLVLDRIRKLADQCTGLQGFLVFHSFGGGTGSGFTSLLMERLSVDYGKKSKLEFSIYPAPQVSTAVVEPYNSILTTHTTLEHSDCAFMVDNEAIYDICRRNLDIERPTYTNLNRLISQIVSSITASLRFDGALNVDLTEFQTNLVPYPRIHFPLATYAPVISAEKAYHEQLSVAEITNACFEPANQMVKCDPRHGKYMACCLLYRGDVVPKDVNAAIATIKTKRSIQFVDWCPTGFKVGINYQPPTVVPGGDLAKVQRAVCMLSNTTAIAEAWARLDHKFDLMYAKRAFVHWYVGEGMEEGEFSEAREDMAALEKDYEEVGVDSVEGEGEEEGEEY
UniProt Q03265, residues 44-553: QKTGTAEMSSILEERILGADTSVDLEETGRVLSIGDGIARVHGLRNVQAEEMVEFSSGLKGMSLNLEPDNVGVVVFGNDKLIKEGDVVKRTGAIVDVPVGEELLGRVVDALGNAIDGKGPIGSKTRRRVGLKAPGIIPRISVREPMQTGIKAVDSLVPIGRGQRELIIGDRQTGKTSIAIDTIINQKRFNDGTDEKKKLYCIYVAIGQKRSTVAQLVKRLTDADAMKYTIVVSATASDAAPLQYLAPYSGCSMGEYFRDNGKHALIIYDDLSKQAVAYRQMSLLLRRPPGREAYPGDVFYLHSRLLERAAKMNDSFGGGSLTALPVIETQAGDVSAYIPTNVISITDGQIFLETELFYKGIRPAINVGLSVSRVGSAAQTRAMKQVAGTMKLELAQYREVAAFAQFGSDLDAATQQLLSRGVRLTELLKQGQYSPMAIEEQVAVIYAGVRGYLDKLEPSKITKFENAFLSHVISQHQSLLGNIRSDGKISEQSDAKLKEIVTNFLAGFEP

Row | Substance | binding
1 | nucleoside diphosphate kinase A (from UniProt P15532 1-152) | binds
2 | Protein disulfide-isomerase (from UniProt P09103 20-509) | binds
3 | 14-3-3 protein zeta/delta (from UniProt P63101 1-245) | binds
4 | Annexin A5 (from UniProt P48036 1-319) | binds
5 | glucose regulated protein 78 kDa (from UniProt P20029 20-655) | binds
6 | Rab2A (from UniProt P53994 1-212) | binds
7 | Fatty acid synthase (from UniProt P19096 1-2504) | binds
8 | RhoA (from UniProt Q9QUI0 1-193) | binds
9 | nucleoside diphosphate kinase B (from UniProt Q01768 1-152) | binds
10 | Guanine nucleotide-binding protein G(I)/G(S)/G(O) subunit gamma-7 (from UniProt Q61016 1-68) | binds
11 | ATPase copper transporting alpha polypeptide (from UniProt Q64430 1-1491) | binds
12 | microtubule-associated protein 2 (from UniProt P20357 1-1828) | binds
13 | Heat shock 70 kDa protein 1B (from UniProt P17879 1-642) | binds
14 | Alpha-tubulin 2 (from UniProt P05213 1-451) | binds
15 | ATP synthase F1 subunit alpha (from UniProt Q03265 44-553) | binds

Reference: article PMC6346685
